Some of the results follow.
Assays:
Assay in all cases: log2 fold change, soluble protein after heating vs DMSO (PISA); higher = thermal stabilisation; K562 lysate, 10 uM; active = over 0.2 and 3.5 SD of the protein, either way, in both replicates (recomputed)
erlotinib = compound: C#Cc1cccc(Nc2ncnc3cc(OCCOC)c(OCCOC)cc23)c1 [erlotinib]
Summary of the method: (§1)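 A 30 min treatment with 10 μM compound was applied to crude K562 extract at 1 mg/mL protein in PBS pH 7.4 with 1 mM MgCl2. Heating for 3 min spanned 48°C-58°C, after which aliquots were pooled, adjusted to 0.5% NP-40 at 4°C and spun at 21,000xg for 90 min. TMTpro 16plex LC-MS/MS of the supernatant, with channel sums equalised, gave values recorded as log-two fold change in thermal stability against solvent controls, from duplicates.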

Protein sequences, listed by entry. Tags and fused reporters are not part of them. Lines headed by an entry give the natural chain unless they say otherwise; changes in a name come on top.
UniProt Q8IWZ6: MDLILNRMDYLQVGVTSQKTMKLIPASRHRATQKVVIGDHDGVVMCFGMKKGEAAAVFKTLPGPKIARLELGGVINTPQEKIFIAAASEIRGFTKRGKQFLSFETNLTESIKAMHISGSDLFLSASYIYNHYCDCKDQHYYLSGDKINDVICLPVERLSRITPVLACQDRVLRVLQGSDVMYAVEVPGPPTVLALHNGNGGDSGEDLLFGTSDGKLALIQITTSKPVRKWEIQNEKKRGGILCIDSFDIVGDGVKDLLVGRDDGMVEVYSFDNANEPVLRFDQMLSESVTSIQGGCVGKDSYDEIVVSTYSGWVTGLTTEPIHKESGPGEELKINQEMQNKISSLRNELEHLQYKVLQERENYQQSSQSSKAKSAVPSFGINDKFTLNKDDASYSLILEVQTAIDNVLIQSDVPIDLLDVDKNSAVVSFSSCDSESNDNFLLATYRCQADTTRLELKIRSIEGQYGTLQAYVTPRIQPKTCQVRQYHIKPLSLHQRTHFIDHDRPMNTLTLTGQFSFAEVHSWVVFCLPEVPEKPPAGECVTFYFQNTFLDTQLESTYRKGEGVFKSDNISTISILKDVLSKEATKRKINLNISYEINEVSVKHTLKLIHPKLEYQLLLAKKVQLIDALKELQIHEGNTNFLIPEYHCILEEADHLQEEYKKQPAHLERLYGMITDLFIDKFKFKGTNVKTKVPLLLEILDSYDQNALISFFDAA
UniProt Q8TD16, whole entry, looked up: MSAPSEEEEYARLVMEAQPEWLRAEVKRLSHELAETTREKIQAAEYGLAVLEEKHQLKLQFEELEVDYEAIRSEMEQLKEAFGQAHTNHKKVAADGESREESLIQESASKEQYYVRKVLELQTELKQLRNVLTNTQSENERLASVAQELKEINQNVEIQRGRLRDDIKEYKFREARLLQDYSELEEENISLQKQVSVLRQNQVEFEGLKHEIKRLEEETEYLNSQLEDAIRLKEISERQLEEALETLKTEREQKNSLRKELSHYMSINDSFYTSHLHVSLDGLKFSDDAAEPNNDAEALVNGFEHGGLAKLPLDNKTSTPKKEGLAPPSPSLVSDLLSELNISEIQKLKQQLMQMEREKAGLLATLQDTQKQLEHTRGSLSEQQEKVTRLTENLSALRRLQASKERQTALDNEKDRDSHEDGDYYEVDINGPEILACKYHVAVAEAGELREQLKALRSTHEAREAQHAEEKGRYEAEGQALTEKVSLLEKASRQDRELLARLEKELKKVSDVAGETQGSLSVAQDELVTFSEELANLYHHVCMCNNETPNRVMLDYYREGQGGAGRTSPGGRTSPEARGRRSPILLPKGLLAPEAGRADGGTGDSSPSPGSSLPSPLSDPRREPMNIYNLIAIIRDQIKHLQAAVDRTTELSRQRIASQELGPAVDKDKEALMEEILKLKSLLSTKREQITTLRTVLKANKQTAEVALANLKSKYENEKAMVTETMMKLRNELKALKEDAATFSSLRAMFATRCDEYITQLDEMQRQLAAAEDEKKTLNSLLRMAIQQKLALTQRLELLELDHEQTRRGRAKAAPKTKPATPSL
UniProt Q96Q07: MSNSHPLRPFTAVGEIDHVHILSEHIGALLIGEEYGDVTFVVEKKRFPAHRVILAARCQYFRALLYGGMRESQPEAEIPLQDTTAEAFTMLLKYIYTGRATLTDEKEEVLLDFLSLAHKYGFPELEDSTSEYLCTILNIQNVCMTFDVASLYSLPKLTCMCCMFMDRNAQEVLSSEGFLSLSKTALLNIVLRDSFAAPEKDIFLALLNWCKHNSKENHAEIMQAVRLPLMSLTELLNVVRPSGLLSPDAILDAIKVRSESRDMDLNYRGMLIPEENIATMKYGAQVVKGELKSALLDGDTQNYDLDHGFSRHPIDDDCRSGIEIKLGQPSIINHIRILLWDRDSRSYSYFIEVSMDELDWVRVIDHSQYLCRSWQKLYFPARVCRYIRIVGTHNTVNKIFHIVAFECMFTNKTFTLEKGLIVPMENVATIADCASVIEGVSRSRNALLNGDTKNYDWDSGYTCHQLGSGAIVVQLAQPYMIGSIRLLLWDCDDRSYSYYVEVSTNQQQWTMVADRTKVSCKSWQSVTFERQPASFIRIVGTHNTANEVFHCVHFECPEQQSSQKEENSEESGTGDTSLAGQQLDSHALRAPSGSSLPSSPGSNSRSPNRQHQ
UniProt Q86UU0: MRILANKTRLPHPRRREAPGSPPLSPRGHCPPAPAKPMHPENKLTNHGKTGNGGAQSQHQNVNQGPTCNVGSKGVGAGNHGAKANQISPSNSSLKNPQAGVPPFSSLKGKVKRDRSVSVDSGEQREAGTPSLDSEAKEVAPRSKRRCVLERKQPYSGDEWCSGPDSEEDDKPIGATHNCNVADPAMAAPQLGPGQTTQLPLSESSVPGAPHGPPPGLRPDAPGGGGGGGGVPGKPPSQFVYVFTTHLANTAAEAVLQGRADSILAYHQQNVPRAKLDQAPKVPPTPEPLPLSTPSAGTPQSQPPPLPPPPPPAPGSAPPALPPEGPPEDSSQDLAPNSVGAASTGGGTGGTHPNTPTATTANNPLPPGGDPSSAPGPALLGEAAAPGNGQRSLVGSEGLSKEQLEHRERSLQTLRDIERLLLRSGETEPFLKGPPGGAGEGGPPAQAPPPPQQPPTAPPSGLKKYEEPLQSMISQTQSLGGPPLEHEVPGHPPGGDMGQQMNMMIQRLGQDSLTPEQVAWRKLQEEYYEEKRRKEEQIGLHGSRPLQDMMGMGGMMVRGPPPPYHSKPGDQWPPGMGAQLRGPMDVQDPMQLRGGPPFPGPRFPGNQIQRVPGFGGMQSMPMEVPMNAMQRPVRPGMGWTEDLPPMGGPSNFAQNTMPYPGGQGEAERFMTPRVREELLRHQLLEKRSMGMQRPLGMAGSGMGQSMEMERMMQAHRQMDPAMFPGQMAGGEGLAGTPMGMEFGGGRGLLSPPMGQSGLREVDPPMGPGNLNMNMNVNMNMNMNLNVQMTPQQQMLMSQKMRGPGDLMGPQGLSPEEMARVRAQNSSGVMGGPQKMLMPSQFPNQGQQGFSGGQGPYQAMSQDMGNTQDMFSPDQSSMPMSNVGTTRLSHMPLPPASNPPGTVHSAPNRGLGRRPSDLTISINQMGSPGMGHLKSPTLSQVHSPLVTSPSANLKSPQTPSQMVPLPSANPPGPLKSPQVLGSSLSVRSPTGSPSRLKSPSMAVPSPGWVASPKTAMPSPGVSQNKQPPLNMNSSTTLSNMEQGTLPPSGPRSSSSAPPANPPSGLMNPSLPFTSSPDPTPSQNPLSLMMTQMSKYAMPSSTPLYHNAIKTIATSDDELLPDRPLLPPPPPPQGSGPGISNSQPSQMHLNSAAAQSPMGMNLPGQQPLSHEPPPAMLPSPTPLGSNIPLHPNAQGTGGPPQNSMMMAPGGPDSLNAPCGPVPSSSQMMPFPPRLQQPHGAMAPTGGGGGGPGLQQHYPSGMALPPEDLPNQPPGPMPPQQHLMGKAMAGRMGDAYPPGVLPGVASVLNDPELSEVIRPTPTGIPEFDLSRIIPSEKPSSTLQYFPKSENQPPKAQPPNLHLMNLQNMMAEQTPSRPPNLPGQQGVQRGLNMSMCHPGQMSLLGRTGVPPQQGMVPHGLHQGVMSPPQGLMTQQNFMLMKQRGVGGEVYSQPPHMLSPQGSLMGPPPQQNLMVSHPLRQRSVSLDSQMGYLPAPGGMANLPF
UniProt O75363: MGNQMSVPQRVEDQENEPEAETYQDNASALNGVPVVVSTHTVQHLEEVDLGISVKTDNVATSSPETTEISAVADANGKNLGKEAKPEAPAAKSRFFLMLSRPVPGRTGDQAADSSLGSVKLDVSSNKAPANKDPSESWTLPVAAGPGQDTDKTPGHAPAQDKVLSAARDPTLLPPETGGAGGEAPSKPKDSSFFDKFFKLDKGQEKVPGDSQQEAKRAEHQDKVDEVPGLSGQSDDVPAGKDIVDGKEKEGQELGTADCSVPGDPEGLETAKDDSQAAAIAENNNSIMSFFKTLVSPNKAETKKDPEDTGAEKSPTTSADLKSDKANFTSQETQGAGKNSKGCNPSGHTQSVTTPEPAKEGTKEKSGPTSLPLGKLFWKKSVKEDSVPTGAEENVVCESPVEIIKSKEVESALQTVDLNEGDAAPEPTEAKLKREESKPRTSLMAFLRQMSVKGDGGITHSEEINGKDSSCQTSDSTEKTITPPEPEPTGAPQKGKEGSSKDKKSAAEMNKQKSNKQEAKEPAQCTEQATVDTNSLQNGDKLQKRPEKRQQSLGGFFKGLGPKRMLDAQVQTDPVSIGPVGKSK
UniProt O43521, whole entry, looked up: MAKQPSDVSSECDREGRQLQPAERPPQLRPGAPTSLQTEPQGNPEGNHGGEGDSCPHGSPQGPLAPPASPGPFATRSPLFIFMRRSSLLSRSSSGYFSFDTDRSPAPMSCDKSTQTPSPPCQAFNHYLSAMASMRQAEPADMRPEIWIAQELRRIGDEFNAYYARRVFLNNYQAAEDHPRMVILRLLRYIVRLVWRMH
UniProt Q96IK1: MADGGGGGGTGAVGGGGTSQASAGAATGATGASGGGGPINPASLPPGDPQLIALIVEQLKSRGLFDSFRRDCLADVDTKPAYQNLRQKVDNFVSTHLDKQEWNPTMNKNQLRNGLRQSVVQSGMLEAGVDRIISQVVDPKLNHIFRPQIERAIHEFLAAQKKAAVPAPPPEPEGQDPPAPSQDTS
UniProt Q8WY36: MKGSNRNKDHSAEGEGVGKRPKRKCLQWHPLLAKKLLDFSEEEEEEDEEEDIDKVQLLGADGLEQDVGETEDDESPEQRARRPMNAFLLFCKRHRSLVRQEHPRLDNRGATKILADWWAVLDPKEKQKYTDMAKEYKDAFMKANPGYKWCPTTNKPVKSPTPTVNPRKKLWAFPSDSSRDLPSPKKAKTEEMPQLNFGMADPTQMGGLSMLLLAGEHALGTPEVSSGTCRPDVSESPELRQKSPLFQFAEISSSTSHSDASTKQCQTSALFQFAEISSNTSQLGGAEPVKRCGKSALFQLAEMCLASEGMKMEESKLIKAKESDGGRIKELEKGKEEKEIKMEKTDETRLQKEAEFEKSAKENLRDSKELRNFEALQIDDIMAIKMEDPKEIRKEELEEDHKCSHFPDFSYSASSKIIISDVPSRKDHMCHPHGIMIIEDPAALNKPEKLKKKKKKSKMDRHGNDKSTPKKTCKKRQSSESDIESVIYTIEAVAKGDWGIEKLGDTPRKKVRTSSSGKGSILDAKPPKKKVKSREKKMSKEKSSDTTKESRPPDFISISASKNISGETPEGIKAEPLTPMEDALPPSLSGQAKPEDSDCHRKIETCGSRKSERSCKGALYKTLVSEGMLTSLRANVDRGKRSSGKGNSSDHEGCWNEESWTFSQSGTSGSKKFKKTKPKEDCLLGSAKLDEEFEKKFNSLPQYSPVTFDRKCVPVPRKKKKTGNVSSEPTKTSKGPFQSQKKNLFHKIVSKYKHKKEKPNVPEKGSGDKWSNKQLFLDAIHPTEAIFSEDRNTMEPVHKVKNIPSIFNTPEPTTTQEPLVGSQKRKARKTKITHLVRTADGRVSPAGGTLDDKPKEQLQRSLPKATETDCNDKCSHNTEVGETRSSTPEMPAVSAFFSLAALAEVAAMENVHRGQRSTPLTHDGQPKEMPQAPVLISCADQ
UniProt P13497: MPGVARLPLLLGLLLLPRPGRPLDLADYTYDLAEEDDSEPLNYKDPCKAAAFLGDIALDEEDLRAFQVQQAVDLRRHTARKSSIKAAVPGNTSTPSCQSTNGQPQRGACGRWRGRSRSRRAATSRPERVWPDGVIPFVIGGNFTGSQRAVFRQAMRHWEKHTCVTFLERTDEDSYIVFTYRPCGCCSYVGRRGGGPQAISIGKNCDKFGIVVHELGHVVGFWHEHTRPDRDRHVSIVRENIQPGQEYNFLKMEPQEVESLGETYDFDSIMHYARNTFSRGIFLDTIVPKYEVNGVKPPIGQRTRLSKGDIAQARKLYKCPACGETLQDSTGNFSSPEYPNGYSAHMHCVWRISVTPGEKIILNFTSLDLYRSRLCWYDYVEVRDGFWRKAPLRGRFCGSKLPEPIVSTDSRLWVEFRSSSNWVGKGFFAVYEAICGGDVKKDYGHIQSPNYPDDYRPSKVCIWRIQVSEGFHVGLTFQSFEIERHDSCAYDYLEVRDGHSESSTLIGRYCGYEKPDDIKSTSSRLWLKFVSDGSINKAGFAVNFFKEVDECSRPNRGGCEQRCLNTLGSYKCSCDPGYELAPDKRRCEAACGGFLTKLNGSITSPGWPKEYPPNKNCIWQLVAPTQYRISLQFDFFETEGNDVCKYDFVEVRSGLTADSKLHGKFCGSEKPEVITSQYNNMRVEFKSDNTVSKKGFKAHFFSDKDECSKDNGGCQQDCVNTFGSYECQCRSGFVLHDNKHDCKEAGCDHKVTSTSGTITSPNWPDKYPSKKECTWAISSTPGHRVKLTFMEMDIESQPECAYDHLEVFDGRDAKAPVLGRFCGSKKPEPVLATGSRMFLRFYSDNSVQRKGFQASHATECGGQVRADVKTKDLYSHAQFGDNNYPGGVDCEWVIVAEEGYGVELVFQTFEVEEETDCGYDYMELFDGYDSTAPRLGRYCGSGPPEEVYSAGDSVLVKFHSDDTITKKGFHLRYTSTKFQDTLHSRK

[1] = compound: C/C(=N\NC(=O)C1=CC(=CC=C1)S(=O)(=O)N2CCOCC2)/C3=C(C=CC(=C3)Cl)O
Summary of the method: as §1

[2] = compound: C1=CC(=CC=C1C2=NC3=C(N2)C=C(C=C3)C(=O)N)OC4=CC=C(C=C4)Cl
Summary of the method: as §1

[3] = compound: C1=CC2=C(C=CC(=C2)/C=C\3/C(=O)NC(=NCC4=CC=CS4)S3)N=C1
Summary of the method: as §1

[4] = compound: C1=CC2=NC=CN=C2C=C1/C=C/3\C(=O)NC(=O)S3
Summary of the method: as §1

[5] = compound: C1=CC=C2C(=C1)C3=NNC4=CC=CC(=C43)C2=O
Summary of the method: as §1

[6] = compound: C1=CC=C(C=C1)C2=NC(=C(N2)C3=CC=NC=C3)C4=CC(=C(C=C4)Cl)O
Summary of the method: as §1

[7] = compound: C1CCN(C1)C(=O)NC2=CC=CC(=C2)NC3=NC=C(C(=N3)NCCC4=CN=CN4)Br
Summary of the method: as §1

[8] = compound: C1CN(CCC1(CC2=CC=C(C=C2)Cl)N)C3=NC=NC4=C3C=CN4
Summary of the method: as §1

IRAK-1-4 Inhibitor I = compound: C1COCCN1CCN2C3=CC=CC=C3N=C2NC(=O)C4=CC(=CC=C4)[N+](=O)[O-] [IRAK-1-4 Inhibitor I]
Summary of the method: as §1

Measured: log2 fold change

BORCS7 (UniProt Q96B45)
inactive: erlotinib 0.045 | [1] -0.002 | [2] -0.021 | [3] 0.141 | [4] -0.103 | [5] -0.018

BDH2 (UniProt Q9BUT1)
inactive: erlotinib -0.094 | [2] 0.102 | [4] -0.068 | [6] -0.074 | [7] 0.028 | [8] -0.25 | IRAK-1-4 Inhibitor I 0.003

BBS7 (UniProt Q8IWZ6)
inactive: erlotinib -0.095 | [1] 0.146 | [2] -0.014 | [3] -0.034 | [6] 0.057 | [5] -0.098 | [7] -0.068 | [8] 0.082 | IRAK-1-4 Inhibitor I 0.022

BICD2 isoform 2 (UniProt Q8TD16)
inactive: erlotinib -0.021 | [1] 0.09 | [2] 0.004 | [3] -0.014 | [4] -0.004 | [6] -0.013 | [5] -0.033 | [7] 0.017 | [8] -0.002 | IRAK-1-4 Inhibitor I -0.021

BRAF (UniProt P15056)
inactive: erlotinib -0.05 | [1] -0.101 | [2] -0.04 | [3] 0.013 | [4] -0.008 | [5] 0 | [7] -0.007 | [8] 0.027 | IRAK-1-4 Inhibitor I -0.005

BTBD9 (UniProt Q96Q07)
inactive: erlotinib 0.072 | [2] 0.068

B4GALT7 (UniProt Q9UBV7)
inactive: erlotinib 0.16 | [1] -0.091 | [2] 0.108 | [3] 0.074 | [5] -0.151 | [7] -0.075 | [8] 0.075

BIN1 (UniProt O00499)
inactive: erlotinib -0.096 | [1] 0.041 | [2] 0.063 | [3] -0.086 | [5] 0.039 | [7] -0.168 | [8] 0.246

BRD2 isoform 2 (UniProt P25440)
inactive: erlotinib -0.039 | [2] 0.02 | [3] 0.036 | [4] 0 | [6] 0.109 | [5] -0.014 | [7] -0.134 | [8] -0.114 | IRAK-1-4 Inhibitor I 0.003

BCL9L (UniProt Q86UU0)
inactive: erlotinib 0.051 | [1] 0.137 | [2] 0.061 | [3] -0.081 | [4] -0.016 | [6] 0.047 | [5] -0.167 | IRAK-1-4 Inhibitor I 0.026

BPTF (UniProt F5GXF5)
inactive: erlotinib -0.079 | [2] 0.087 | [6] 0.066 | IRAK-1-4 Inhibitor I 0.024

BCAS1 isoform 2 (UniProt O75363)
inactive: [4] -0.044 | [6] 0.069 | [7] -0.048 | [8] -0.043 | IRAK-1-4 Inhibitor I 0.108

BNIP3L (UniProt O60238)
inactive: [7] -0.019 | [8] 0.057

BTBD10 isoform 2 (UniProt Q9BSF8)
inactive: [4] 0.108

BCAP31, A0A2R8Y5M6
inactive: [1] 0.07 | [3] -0.212 | [5] 0.074 | [7] -0.093 | [8] 0.006

BAZ2A (UniProt Q9UIF9)
inactive: erlotinib -0.054 | [2] 0.081 | [6] 0.007 | [7] -0.082 | [8] -0.096 | IRAK-1-4 Inhibitor I -0.044

BRMS1L (UniProt Q5PSV4)
inactive: [1] -0.001 | [3] -0.122 | [5] -0.234 | [7] -0.039 | [8] -0.07

BEGAIN, A0A1B0GVM0
inactive: erlotinib 0.086 | [2] -0.053 | [6] -0.015 | [7] 0.01 | [8] -0.026 | IRAK-1-4 Inhibitor I -0.008

BRAF, A0A2R8Y8E0
inactive: [1] -0.005 | [3] 0.001 | [5] 0.119 | [7] 0.067 | [8] -0.045

BCL2L11 (UniProt O43521)
inactive: [1] -0.036 | [3] -0.079 | [4] -0.1 | [5] -0.075

BSCL2 isoform 4 (UniProt Q96G97)
inactive: erlotinib 0.014 | [2] -0.093 | [6] -0.166 | IRAK-1-4 Inhibitor I 0

BTG3 isoform 2 (UniProt Q14201)
inactive: erlotinib 0.116 | [2] 0.189 | [7] 0.227 | [8] -0.011

B4GAT1 (UniProt O43505)
inactive: erlotinib 0.063 | [2] 0.098 | [4] 0.175 | [6] -0.087 | IRAK-1-4 Inhibitor I 0.386

BOD1 (UniProt Q96IK1)
inactive: [6] 0.021 | IRAK-1-4 Inhibitor I 0.007

BBX (UniProt Q8WY36)
inactive: erlotinib 0.016 | [2] 0.029 | [7] 0.059 | [8] -0.135

BANP isoform 7 (UniProt Q8N9N5)
inactive: erlotinib 0.189 | [2] 0 | [7] 0.129 | [8] 0.109

BICRA (UniProt Q9NZM4)
inactive: erlotinib 0.204 | [2] 0.231 | [4] 0.12 | [6] 0.065 | IRAK-1-4 Inhibitor I 0.115

BICRAL (UniProt Q6AI39)
inactive: [6] 0.076 | [7] -0.151 | [8] 0.042 | IRAK-1-4 Inhibitor I 0.077

BCL7A (UniProt Q4VC05)
inactive: [4] -0.054 | [6] 0.166 | IRAK-1-4 Inhibitor I 0.128

BMP1 (UniProt P13497)
inactive: [6] -0.081 | IRAK-1-4 Inhibitor I -0.219

BPIFA2 (UniProt Q96DR5)
inactive: erlotinib -0.404 | [2] -0.039 | [4] -0.303 | [7] -0.058 | [8] -0.911

BPIFB1 (UniProt Q8TDL5)
inactive: [7] -0.26 | [8] 0.045

BNIP2 (UniProt H7C096)
inactive: [4] -0.074 | [7] 0.036 | [8] -0.021

BHLHE40 (UniProt O14503)
inactive: erlotinib -0.002 | [2] 0.099 | [6] -0.019 | IRAK-1-4 Inhibitor I 0.041

BRD9 (UniProt Q9H8M2)
inactive: erlotinib 0.035 | [2] -0.13 | [6] -0.099 | [7] -0.103 | [8] 0.141 | IRAK-1-4 Inhibitor I 0.054

BRF2 (UniProt Q9HAW0)
inactive: [7] -0.191 | [8] 0.222

BDP1 (UniProt A6H8Y1)
inactive: [6] -0.135 | [7] -0.154 | [8] 0.17 | IRAK-1-4 Inhibitor I -0.026

BEX2 isoform 2 (UniProt Q9BXY8)
inactive: [1] 0.166 | [3] -0.096 | [5] 0.147

BAHD1 (UniProt Q8TBE0)
inactive: [4] 0.103 | [6] -0.012 | IRAK-1-4 Inhibitor I -0.064

BRWD1 (UniProt Q9NSI6)
inactive: [6] -0.125 | IRAK-1-4 Inhibitor I 0.007

BCL2 (UniProt P10415)
inactive: [4] -0.067 | [6] 0.271 | IRAK-1-4 Inhibitor I 0.052

BEX4 (UniProt Q9NWD9)
inactive: erlotinib -0.006 | [2] 0.015 | [6] -0.001 | IRAK-1-4 Inhibitor I -0.052

12 successive records out of the list so far, for reference:
BMP1 (UniProt P13497)
inactive: [6] -0.081 | IRAK-1-4 Inhibitor I -0.219

BPIFA2 (UniProt Q96DR5)
inactive: erlotinib -0.404 | [2] -0.039 | [4] -0.303 | [7] -0.058 | [8] -0.911

BPIFB1 (UniProt Q8TDL5)
inactive: [7] -0.26 | [8] 0.045

BNIP2 (UniProt H7C096)
inactive: [4] -0.074 | [7] 0.036 | [8] -0.021

BHLHE40 (UniProt O14503)
inactive: erlotinib -0.002 | [2] 0.099 | [6] -0.019 | IRAK-1-4 Inhibitor I 0.041

BRD9 (UniProt Q9H8M2)
inactive: erlotinib 0.035 | [2] -0.13 | [6] -0.099 | [7] -0.103 | [8] 0.141 | IRAK-1-4 Inhibitor I 0.054

BRF2 (UniProt Q9HAW0)
inactive: [7] -0.191 | [8] 0.222

BDP1 (UniProt A6H8Y1)
inactive: [6] -0.135 | [7] -0.154 | [8] 0.17 | IRAK-1-4 Inhibitor I -0.026

BEX2 isoform 2 (UniProt Q9BXY8)
inactive: [1] 0.166 | [3] -0.096 | [5] 0.147

BAHD1 (UniProt Q8TBE0)
inactive: [4] 0.103 | [6] -0.012 | IRAK-1-4 Inhibitor I -0.064

BRWD1 (UniProt Q9NSI6)
inactive: [6] -0.125 | IRAK-1-4 Inhibitor I 0.007

BCL2 (UniProt P10415)
inactive: [4] -0.067 | [6] 0.271 | IRAK-1-4 Inhibitor I 0.052

More entries:

BTBD2 (UniProt Q9BX70)
inactive: erlotinib -0.079 | [2] 0.195 | [7] 0.015 | [8] -0.044

— the supplement of paper PMC10849652
